Test results taken from US9346805B2, “Pyrimidyl cyclopentanes as Akt protein kinase inhibitors” (Array BioPharma Inc., priority 2008, dated 2016).
Some entries share one result that the patent states for a list of compounds.

The chains behind the UniProt entries cited, without tags or fusion partners. Where a name states a change or a piece, a line headed by the entry shows the natural chain unless it says otherwise.
UniProt P31749: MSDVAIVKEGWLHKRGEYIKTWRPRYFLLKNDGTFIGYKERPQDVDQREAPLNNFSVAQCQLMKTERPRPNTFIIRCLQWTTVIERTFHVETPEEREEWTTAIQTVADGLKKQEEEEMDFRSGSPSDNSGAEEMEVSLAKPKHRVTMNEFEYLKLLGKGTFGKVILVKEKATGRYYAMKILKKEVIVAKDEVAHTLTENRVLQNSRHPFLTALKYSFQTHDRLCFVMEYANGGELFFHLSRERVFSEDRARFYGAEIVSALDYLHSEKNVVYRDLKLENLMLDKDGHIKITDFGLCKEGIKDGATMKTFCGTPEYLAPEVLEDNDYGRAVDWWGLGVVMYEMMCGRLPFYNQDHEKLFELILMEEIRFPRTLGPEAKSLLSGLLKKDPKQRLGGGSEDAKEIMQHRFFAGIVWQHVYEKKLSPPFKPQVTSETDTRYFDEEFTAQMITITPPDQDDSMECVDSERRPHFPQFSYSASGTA

These compounds were tested against full-length human recombinant active Akt-1 (Homo sapiens, UniProt P31749) (assay: AKT-1 Kinase Assay (IMAP fluorescence polarization)). Details: phosphorylation of fluorescently-labeled peptide (Crosstide) by Akt-1; printed as 'less than about'.
Format: biochemical
C[C@@H]1CCc2ncnc(N3CC4(CCNCC4)c4c3ccc(Cl)c4Br)c21 [Example 38, (R)-4-bromo-5-chloro-1-(5-methyl-6,7-dihydro-5H-cyclopenta[d]pyrimidin-4-yl)spiro[indoline-3,4′-piperidine]] was tested, and the IC50 was < 10 µM. With C[C@@H]1CCc2ncnc(N3CC4(CCNCC4)c4cc(C#N)ccc43)c21 [Example 39, (R)-1-(5-methyl-6,7-dihydro-5H-cyclopenta[d]pyrimidin-4-yl)spiro[indoline-3,4′-piperidine]-5-carbonitrile] the IC50 was < 10 µM. In the case of C[C@@H]1CCc2ncnc(N3CC4(CCNCC4)c4c(C#N)cccc43)c21 [Example 40, (R)-1-(5-methyl-6,7-dihydro-5H-cyclopenta[d]pyrimidin-4-yl)spiro[indoline-3,4′-piperidine]-4-carbonitrile], the IC50 is reported as < 10 µM. In the case of C[C@@H]1CCc2ncnc(N3CC4(CCNCC4)c4c(CN)cccc43)c21 [Example 41], the IC50 is reported as < 10 µM. For C[C@@H]1CCc2ncnc(N3CC4(CCNCC4)c4c3ccc(Cl)c4CN)c21 [Example 42, (R)-(5-chloro-1-(5-methyl-6,7-dihydro-5H-cyclopenta[d]pyrimidin-4-yl)spiro[indoline-3,4′-piperidine]-4-yl)methanamine], the IC50 was < 10 µM. C[C@@H]1CCc2ncnc(N3CC4(CCN(CCO)CC4)c4cc(Cl)ccc43)c21 [Example 43, (R)-2-(5-chloro-1-(5-methyl-6,7-dihydro-5H-cyclopenta[d]pyrimidin-4-yl)spiro[indoline-3,4′-piperidine]-1′-yl)ethanol] was tested, and the IC50 was < 10 µM. C[C@@H]1CCc2ncnc(N3CC4(CCN(Cc5ccc(Cl)cc5)CC4)c4cc(Cl)ccc43)c21 [Example 44, (R)-5-chloro-1′-(4-chlorobenzyl)-1-(5-methyl-6,7-dihydro-5H-cyclopenta[d]pyrimidin-4-yl)spiro[indoline-3,4′-piperidine]] was tested, and the IC50 was < 10 µM. In the case of C[C@@H]1CCc2ncnc(N3CC4(CCN(C)CC4)c4cc(Cl)ccc43)c21 [Example 45, (R)-5-chloro-1′-methyl-1-(5-methyl-6,7-dihydro-5H-cyclopenta[d]pyrimidin-4-yl)spiro[indoline-3,4′-piperidine]], the IC50 is reported as < 10 µM. In the case of CC(C)N1CCC2(CC1)CN(c1ncnc3c1[C@H](C)CC3)c1ccc(Cl)cc12 [Example 46, (R)-5-chloro-1′-isopropyl-1-(5-methyl-6,7-dihydro-5H-cyclopenta[d]pyrimidin-4-yl)spiro[indoline-3,4′-piperidine]], the IC50 is reported as < 10 µM. C[C@@H]1CCc2ncnc(N3CC4(CCN(CC5CC5)CC4)c4cc(Cl)ccc43)c21 [Example 47, (R)-5-chloro-1′-(cyclopropylmethyl)-1-(5-methyl-6,7-dihydro-5H-cyclopenta[d]pyrimidin-4-yl)spiro[indoline-3,4′-piperidine]] was tested, and the IC50 was < 10 µM. For CONC(=O)Cc1ccc2c(c1)C1(CCNCC1)CN2c1ncnc2c1[C@H](C)CC2 [Example 48, (R)-N-methoxy-2-(1-(5-methyl-6,7-dihydro-5H-cyclopenta[d]pyrimidin-4-yl)spiro[indoline-3,4′-piperidine]-5-yl)acetamide], the IC50 was < 10 µM. CNC(=O)Cc1ccc2c(c1)C1(CCNCC1)CN2c1ncnc2c1[C@H](C)CC2 [Example 49, (R)-N-methyl-2-(1-(5-methyl-6,7-dihydro-5H-cyclopenta[d]pyrimidin-4-yl)spiro[indoline-3,4′-piperidine]-5-yl)acetamide] was tested, and the IC50 was < 10 µM. For CC(=O)NCc1ccc2c(c1)C1(CCNCC1)CN2c1ncnc2c1[C@H](C)CC2 [Example 50, (R)-N-((1-(5-methyl-6,7-dihydro-5H-cyclopenta[d]pyrimidin-4-yl)spiro[indoline-3,4′-piperidine]-5-yl)methyl)acetamide], the IC50 was < 10 µM. For C[C@@H]1CCc2ncnc(N3CC4(CCNCC4)c4cc(CCO)ccc43)c21 [Example 51, (R)-2-(1-(5-methyl-6,7-dihydro-5H-cyclopenta[d]pyrimidin-4-yl)spiro[indoline-3,4′-piperidine]-5-yl)ethanol], the IC50 was < 10 µM. With C[C@@H]1CCc2ncnc(N3CC4(CCNCC4)c4cc(C(N)=O)ccc43)c21 [Example 52, (R)-1-(5-methyl-6,7-dihydro-5H-cyclopenta[d]pyrimidin-4-yl)spiro[indoline-3,4′-piperidine]-5-carboxamide] the IC50 was < 10 µM. For C[C@@H]1CCc2ncnc(N3CC4(CCNCC4)c4cc(OCc5ccccc5)ccc43)c21 [Example 53, (R)-5-(benzyloxy)-1-(5-methyl-6,7-dihydro-5H-cyclopenta[d]pyrimidin-4-yl)spiro[indoline-3,4′-piperidine]], the IC50 was < 10 µM. For C[C@@H]1CCc2ncnc(N3CC4(CCNCC4)c4cc(O)ccc43)c21 [Example 54, (R)-1-(5-methyl-6,7-dihydro-5H-cyclopenta[d]pyrimidin-4-yl)spiro[indoline-3,4′-piperidin]-5-ol], the IC50 was < 10 µM. In the case of C[C@@H]1CCc2ncnc(N3CC4(CCNCC4)c4cc(OCC(N)=O)ccc43)c21 [Example 55, (R)-2-(1-(5-methyl-6,7-dihydro-5H-cyclopenta[d]pyrimidin-4-yl)spiro[indoline-3,4′-piperidine]-5-yloxy)acetamide], the IC50 is reported as < 10 µM. In the case of C[C@@H]1CCc2ncnc(N3C[C@]4(CCCN(CCO)C4)c4cc(F)ccc43)c21 [Example 56, 2-((R)-5-fluoro-1-((R)-5-methyl-6,7-dihydro-5H-cyclopenta[d]pyrimidin-4-yl)spiro[indoline-3,3′-piperidine]-1′-yl)ethanol], the IC50 is reported as < 10 µM. For C[C@@H]1CCc2ncnc(N3C[C@]4(CCCN(C)C4)c4cc(F)ccc43)c21 [Example 57, (R)-4-((R)-5-fluoro-1′-methylspiro[indoline-3,3′-piperidine]-1-yl)-5-methyl-6,7-dihydro-5H-cyclopenta[d]pyrimidine], the IC50 was < 10 µM. In the case of C[C@@H]1C[C@@H](O)c2ncnc(N3CC4(CCN(CC5CC5)CC4)c4cc(Cl)ccc43)c21 [Example 58, (5R,7R)-4-(5-chloro-1′-(cyclopropylmethyl)spiro[indoline-3,4′-piperidine]-1-yl)-5-methyl-6,7-dihydro-5H-cyclopenta[d]pyrimidin-7-ol], the IC50 is reported as < 10 µM. C[C@@H]1C[C@@H](O)c2ncnc(N3CC4(CCNCC4)c4cc(OCc5ccccc5)ccc43)c21 [Example 59, (5R,7R)-4-(5-(benzyloxy)spiro[indoline-3,4′-piperidine]-1-yl)-5-methyl-6,7-dihydro-5H-cyclopenta[d]pyrimidin-7-ol] was tested, and the IC50 was < 10 µM. In the case of C[C@@H]1CCc2ncnc(N3C[C@@]4(CCN(Cc5ccccc5)C4)c4cc(Cl)ccc43)c21 [Example 60, (S)-1′-benzyl-5-chloro-1-((R)-5-methyl-6,7-dihydro-5H-cyclopenta[d]pyrimidin-4-yl)spiro[indoline-3,3′-pyrrolidine]], the IC50 is reported as < 10 µM. C[C@@H]1CCc2ncnc(N3C[C@]4(CCN(Cc5ccccc5)C4)c4cc(Cl)ccc43)c21 [Example 61, (R)-1′-benzyl-5-chloro-1-((R)-5-methyl-6,7-dihydro-5H-cyclopenta[d]pyrimidin-4-yl)spiro[indoline-3,3′-pyrrolidine]] was tested, and the IC50 was < 10 µM. With C[C@@H]1CCc2ncnc(N3CC4(CCCN(CCCN)C4)c4cc(F)ccc43)c21 (stereo partly drawn) [Example 62, 3-(5-fluoro-1-((R)-5-methyl-6,7-dihydro-5H-cyclopenta[d]pyrimidin-4-yl)spiro[indoline-3,3′-piperidine]-1′-yl)propan-1-amine] the IC50 was < 10 µM. C[C@@H]1CCc2ncnc(N3C[C@@]4(CCN(C)C4)c4cc(Cl)ccc43)c21 [Example 63, (S)-5-chloro-1′-methyl-1-((R)-5-methyl-6,7-dihydro-5H-cyclopenta[d]pyrimidin-4-yl)spiro[indoline-3,3′-pyrrolidine]] was tested, and the IC50 was < 10 µM. For C[C@@H]1CCc2ncnc(N3C[C@@]4(CCN(CCCN)C4)c4cc(Cl)ccc43)c21 [Example 64, 3-((S)-5-chloro-1-((R)-5-methyl-6,7-dihydro-5H-cyclopenta[d]pyrimidin-4-yl)spiro[indoline-3,3′-pyrrolidine]-1′-yl)propan-1-amine], the IC50 was < 10 µM. With C[C@@H]1CCc2ncnc(N3C[C@]4(CCN(C)C4)c4cc(Cl)ccc43)c21 [Example 65, (R)-5-chloro-1′-methyl-1-((R)-5-methyl-6,7-dihydro-5H-cyclopenta[d]pyrimidin-4-yl)spiro[indoline-3,3′-pyrrolidine]] the IC50 was < 10 µM. For C[C@@H]1C[C@@H](O)c2ncnc(N3CC4(CCNCC4)c4c(CN(C)C)cccc43)c21 [Example 66, (5R,7R)-4-(4-((dimethylamino)methyl)spiro[indoline-3,4′-piperidine]-1-yl)-5-methyl-6,7-dihydro-5H-cyclopenta[d]pyrimidin-7-ol], the IC50 was < 10 µM. In the case of CC(C)NCc1c(Cl)ccc2c1C1(CCNCC1)CN2c1ncnc2c1[C@H](C)C[C@H]2O [Example 67, (5R,7R)-4-(5-chloro-4-((isopropylamino)methyl)spiro[indoline-3,4′-piperidine]-1-yl)-5-methyl-6,7-dihydro-5H-cyclopenta[d]pyrimidin-7-ol], the IC50 is reported as < 10 µM. With CC(C)NCc1cccc2c1C1(CCNCC1)CN2c1ncnc2c1[C@H](C)CC2 [Example 68, (R)—N-((1-(5-methyl-6,7-dihydro-5H-cyclopenta[d]pyrimidin-4-yl)spiro[indoline-3,4′-piperidine]-4-yl)methyl)propan-2-amine] the IC50 was < 10 µM. With CC(C)NCc1cccc2c1C1(CCNCC1)CN2c1ncnc2c1[C@H](C)C[C@@H]2F [Example 69, N-((1-((5R,7S)-7-fluoro-5-methyl-6,7-dihydro-5H-cyclopenta[d]pyrimidin-4-yl)spiro[indoline-3,4′-piperidine]-4-yl)methyl)propan-2-amine] the IC50 was < 10 µM. For C[C@@H]1CCc2ncnc(N3CC4(CCNCC4)c4c(CNCCF)cccc43)c21 [Example 70, (R)-2-fluoro-N-((1-(5-methyl-6,7-dihydro-5H-cyclopenta[d]pyrimidin-4-yl)spiro[indoline-3,4′-piperidine]-4-yl)methyl)ethanamine], the IC50 was < 10 µM. With C[C@@H]1CCc2ncnc(N3CC4(CCNCC4)c4c(CNCCO)cccc43)c21 [Example 71, (R)-2-((1-(5-methyl-6,7-dihydro-5H-cyclopenta[d]pyrimidin-4-yl)spiro[indoline-3,4′-piperidine]-4-yl)methylamino)ethanol] the IC50 was < 10 µM.
